From PubChem BioAssay AID200 (DTP/NCI, 2004)
The list does not hold the whole screen: it is rich in T/C values a quarter to a half above the control, in often repeated tests (any T/C) and in doses without a T/C. Further doses and runs are listed elsewhere. T/C: endpoint of the treated group in % of that of the vehicle group. Some doses have a count of surviving animals in place of a T/C: the source files T/C as zero there, which appears to mark a toxic dose or a test without result, not a measured value. Some doses without a T/C left all or most animals alive at the check, yet need not have been tolerated: survival well below the control is almost never listed, so the zero probably covers shortened survival too. Survivors were counted at the toxicity check, usually on the fifth day, unless a day is given; later deaths do not show. Schedules are NCI's codes, read here as Q, the interval in days (D) or hours (H), X, the number of doses. Some doses were run more than once; the values are given in rising order. For survival time, this PubChem deposit counts one and a half times the control or more as active, and values a quarter to a half above the control carry no call in these data; other NCI protocols may use other cut-offs. Brackets with × say how often a value occurs here. Some T/C values carry the count of animals alive at the toxicity check (mostly the fifth day); where none is given, no animal had died by that day. Where a SMILES comes first, the peptide text is derived from it. [ ]: non-standard residue; d: D form. The star is where a group is joined. Nle = CCCC[CH](N)C(=O)O; Cbz = O=C(OCc1ccccc1)*; Nva = CCC[CH](N)C(=O)O

Test system: B6C3F1 mice, B16 melanoma ip, median survival T/C
Test: NCI In Vivo Anticancer Drug Screen. Data for tumor model B16 Melanoma (intraperitoneal) in B6C3F1 mice
Settings: T/C endpoint: median survival time, schedule: Q01DX009 (ip), higher T/C = longer survival
How it was run: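 Mice bearing transplanted tumor were dosed with compound or vehicle, and survival was recorded. Activity is expressed as the treated-group measurement (T) divided by the vehicle control measurement (C).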

[1] = dose: 1.5 mg/kg/injection, vehicle: Klucel (hydroxypropylcellulose) (HPC)
[2] = dose: 50.0 mg/kg/injection, vehicle: acid diluted with saline
[3] = dose: 200.0 mg/kg/injection, vehicle: saline with Tween-80
[4] = dose: 400.0 mg/kg/injection, vehicle: saline with Tween-80
[5] = dose: 100.0 mg/kg/injection, vehicle: saline with Tween-80
[6] = dose: 6.0 mg/kg/injection, vehicle: Klucel (hydroxypropylcellulose) (HPC)

## C=C(NC(=O)C(=C)NC(=O)c1csc(C2=NC3c4csc(n4)C4NC(=O)c5csc(n5)C(C(C)(O)C(C)O)NC(=O)C5CSC(=N5)/C(=C/C)NC(=O)C(C(C)O)NC(=O)c5csc(n5)C3(CC2)NC(=O)C(C)NC(=O)C(=C)NC(=O)C(=C)NC(=O)C(C(C)C)NC2C=Cc3c(C(C)O)cc(nc3C2O)C(=O)OC4C)n1)C(N)=O (configuration not stated)
dose: 100.0 mg/kg/injection, vehicle: saline
  T/C: 126 % of control

## Cc1ncc(O)c(CO)c1O
dose: 6.25 mg/kg/injection, vehicle: saline
  survivor count: 10 of 10

## COc1cc2c(c(OC)c1O)-c1ccc(OC)c(=O)cc1[C@@H](NC(=O)C(F)(F)F)CC2
dose: 0.54 mg/kg/injection, vehicle: Klucel (hydroxypropylcellulose) (HPC)
  T/C: 130 % of control
dose: 0.9 mg/kg/injection, vehicle: Klucel (hydroxypropylcellulose) (HPC)
  T/C: 135 % of control
dose: 1.25 mg/kg/injection, vehicle: Klucel (hydroxypropylcellulose) (HPC)
  T/C: 132 % of control
[1]
  T/C: 137 % of control
dose: 2.5 mg/kg/injection, vehicle: Klucel (hydroxypropylcellulose) (HPC)
  T/C: 134 and 137 % of control
dose: 5.0 mg/kg/injection, vehicle: Klucel (hydroxypropylcellulose) (HPC)
  survivor count: 5 of 10 and 10 of 10
dose: 10.0 mg/kg/injection, vehicle: Klucel (hydroxypropylcellulose) (HPC)
  survivor count: 2 of 10 and 10 of 10

## C=C1C(=O)OCC1C(=O)O (configuration not stated)
dose: 32.0 mg/kg/injection, vehicle: saline
  survivor count: 8 of 10
dose: 64.0 mg/kg/injection, vehicle: saline
  survivor count: 1 of 10 and 6 of 10
dose: 128.0 mg/kg/injection, vehicle: saline
  survivor count: 0 of 10

## O=C1c2cccc(NCCCNCCO)c2C(=O)c2cccc(NCCCNCCO)c21
dose: 6.25 mg/kg/injection, vehicle: acid diluted with saline
  survivor count: 10 of 10
dose: 12.5 mg/kg/injection, vehicle: acid diluted with saline
  T/C: 127 % of control [9 of 10 alive]
dose: 25.0 mg/kg/injection, vehicle: acid diluted with saline
  T/C: 135 % of control
[2]
  T/C: 138 % of control [9 of 10 alive]
  survivor count: 10 of 10
dose: 100.0 mg/kg/injection, vehicle: acid diluted with saline
  survivor count: 3 of 10

## CCSc1ncnc2c1ncn2C1OC(CO)C(O)C1O (configuration not stated)
[3]
  survivor count: 10 of 10
[4]
  survivor count: 6 of 10

## COc1cc([C@@H]2c3cc4c(cc3[C@H](OC3OC5COC(c6ccccc6)OC5C(O)C3O)[C@H]3COC(=O)[C@H]23)OCO4)cc(OC)c1OC (some centres not stated)
dose: 12.5 mg/kg/injection, vehicle: saline with Tween-80
  T/C: 137 and 143 % of control
dose: 25.0 mg/kg/injection, vehicle: saline with Tween-80
  T/C: 146 % of control
[5]
  survivor count: 10 of 10
[3]
  survivor count: 9 of 10

## O=C(N/N=C\c1cc(Br)cc(Br)c1O)N/N=C/c1cc(Br)cc(Br)c1O
dose: 12.5 mg/kg/injection, vehicle: saline with Tween-80, evaluated on day 45
  T/C: 104 % of control
dose: 12.5 mg/kg/injection, vehicle: saline with Tween-80, evaluated on day 60
  T/C: 104, 107, 110, 111 % of control
dose: 25.0 mg/kg/injection, vehicle: saline with Tween-80, evaluated on day 45
  T/C: 101 % of control
dose: 25.0 mg/kg/injection, vehicle: saline with Tween-80, evaluated on day 60
  T/C: 101, 106, 107, 117 % of control
dose: 50.0 mg/kg/injection, vehicle: saline with Tween-80, evaluated on day 45
  T/C: 114 % of control
dose: 50.0 mg/kg/injection, vehicle: saline with Tween-80, evaluated on day 60
  T/C: 109, 118, 119, 124 % of control
dose: 100.0 mg/kg/injection, vehicle: saline with Tween-80, evaluated on day 45
  T/C: 114 % of control
dose: 100.0 mg/kg/injection, vehicle: saline with Tween-80, evaluated on day 60
  T/C: 121 (2×), 128, 144 % of control
dose: 200.0 mg/kg/injection, vehicle: saline with Tween-80, evaluated on day 45
  T/C: 129 % of control
dose: 200.0 mg/kg/injection, vehicle: saline with Tween-80, evaluated on day 60
  T/C: 141, 152, 154 % of control (2×)
dose: 400.0 mg/kg/injection, vehicle: saline with Tween-80, evaluated on day 45
  T/C: 147 % of control
dose: 400.0 mg/kg/injection, vehicle: saline with Tween-80, evaluated on day 60
  T/C: 101 and 151 % of control
[4]
  survivor count: 9 of 10 and 10 of 10

## C=C(OP(=O)(OC)OC)Sc1ccccc1C
dose: 1.0 mg/kg/injection, vehicle: Klucel (hydroxypropylcellulose) (HPC)
  survivor count: 9 of 10
[1]
  survivor count: 8 of 10
dose: 3.0 mg/kg/injection, vehicle: Klucel (hydroxypropylcellulose) (HPC)
  survivor count: 0 of 10
[6]
  survivor count: 0 of 10
dose: 12.5 mg/kg/injection, vehicle: Klucel (hydroxypropylcellulose) (HPC)
  survivor count: 0 of 10
dose: 25.0 mg/kg/injection, vehicle: Klucel (hydroxypropylcellulose) (HPC)
  survivor count: 0 of 10
dose: 50.0 mg/kg/injection, vehicle: Klucel (hydroxypropylcellulose) (HPC)
  survivor count: 0 of 10
dose: 100.0 mg/kg/injection, vehicle: Klucel (hydroxypropylcellulose) (HPC)
  survivor count: 0 of 10
dose: 200.0 mg/kg/injection, vehicle: Klucel (hydroxypropylcellulose) (HPC)
  survivor count: 0 of 10

## CCN1/C(=C/C=C/C=C\C=C\c2sc3ccc4ccccc4c3[n+]2CC)Sc2ccc3ccccc3c21
dose: 5.0 mg/kg/injection, vehicle: saline with Tween-80
  survivor count: 10 of 10
dose: 5.0 mg/kg/injection, vehicle: saline
  survivor count: 10 of 10
dose: 10.0 mg/kg/injection, vehicle: saline with Tween-80
  survivor count: 9 of 10
dose: 10.0 mg/kg/injection, vehicle: saline
  survivor count: 10 of 10
dose: 20.0 mg/kg/injection, vehicle: saline with Tween-80
  survivor count: 10 of 10
dose: 20.0 mg/kg/injection, vehicle: saline
  survivor count: 10 of 10
dose: 40.0 mg/kg/injection, vehicle: saline with Tween-80
  survivor count: 7 of 10
dose: 40.0 mg/kg/injection, vehicle: saline
  survivor count: 10 of 10

## CCCCC(NC(=O)C(CCC)NC(=O)OCc1ccccc1)C(=O)O (configuration not stated) (Cbz-[Nva]-[Nle]-OH; configuration not given here)
dose: 400.0 mg/kg/injection, vehicle: Klucel (hydroxypropylcellulose) (HPC)
  survivor count: 5 of 10

## CC(=O)O[C@@H]1CO[C@H]2O[C@H]3[C@@H](C(C=O)=C[C@H](O)[C@@H]4C5=C(C(C)C)CC[C@]5(C)CC[C@@]34C)[C@@]2(O)C1=O
[6]
  survivor count: 8 of 10
dose: 12.0 mg/kg/injection, vehicle: Klucel (hydroxypropylcellulose) (HPC)
  survivor count: 0 of 10
dose: 24.0 mg/kg/injection, vehicle: Klucel (hydroxypropylcellulose) (HPC)
  survivor count: 0 of 10

## CC(C)(C)OC(=O)NC(Cc1c[nH]c2ccccc12)C(=O)ON1C(=O)CCC1=O (configuration not stated)
dose: 50.0 mg/kg/injection, vehicle: saline with Tween-80
  survivor count: 10 of 10
[5]
  survivor count: 10 of 10
[3]
  survivor count: 10 of 10

## CC(C)C(NC(=O)OC(C)(C)C)C(=O)ON1C(=O)CCC1=O (configuration not stated)
[3]
  survivor count: 10 of 10
